Patent publication US6781000B1, “Alpha-ketoamide inhibitors of 20S proteasome” (CV Theurapeutics, Inc., priority 1998, dated 2004)
Like-named read-outs stand apart in the source and are kept apart here. Some entries share one result that the patent states for a list of compounds.

By UniProt entry, the sequences of proteins in these tests, tags left out. Where a name states a change or a piece, a line headed by the entry shows the natural chain unless it says otherwise.
UniProt P33672: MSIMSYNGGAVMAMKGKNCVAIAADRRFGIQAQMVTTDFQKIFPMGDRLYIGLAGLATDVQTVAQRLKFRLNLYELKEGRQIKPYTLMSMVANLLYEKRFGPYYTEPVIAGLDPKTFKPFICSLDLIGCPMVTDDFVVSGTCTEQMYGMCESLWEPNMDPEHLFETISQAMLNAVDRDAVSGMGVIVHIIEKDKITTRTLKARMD
UniProt Q2TBP0: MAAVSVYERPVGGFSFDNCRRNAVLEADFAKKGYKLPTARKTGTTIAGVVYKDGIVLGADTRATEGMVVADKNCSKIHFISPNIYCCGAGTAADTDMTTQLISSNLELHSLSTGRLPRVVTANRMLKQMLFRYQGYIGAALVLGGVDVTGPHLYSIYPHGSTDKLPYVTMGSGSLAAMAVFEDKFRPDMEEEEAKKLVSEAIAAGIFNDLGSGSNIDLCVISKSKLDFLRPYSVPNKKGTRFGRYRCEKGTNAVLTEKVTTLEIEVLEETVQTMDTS
UniProt Q3MHN0: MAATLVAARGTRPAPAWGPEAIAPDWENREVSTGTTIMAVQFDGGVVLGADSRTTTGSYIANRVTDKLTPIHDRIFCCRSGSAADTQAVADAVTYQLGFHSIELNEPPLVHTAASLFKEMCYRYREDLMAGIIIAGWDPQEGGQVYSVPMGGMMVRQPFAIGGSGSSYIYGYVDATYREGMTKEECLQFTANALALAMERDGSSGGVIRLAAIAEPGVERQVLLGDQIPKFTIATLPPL

Key:
[1] = molecular target: T1, tryptic activity of 20S proteasome (Bos taurus, UniProt P33672+Q2TBP0); assay: 20S proteasome tryptic activity inhibition assay (CBZ-D-Ala-Leu-Arg-AMC cleavage); format: biochemical, bovine; settings: 15 minutes at 37° C.; for IC50: read-out: tryptic activity inhibition, active as inhibitors at
T1 construct: was purified to homogeneity from bovine brain according to published methods; from tissue; host or cells: bovine brain

[2] = molecular target: T2, peptidylglutamyl activity of 20S proteasome (Bos taurus, UniProt Q2TBP0+Q3MHN0); assay: 20S proteasome peptidylglutamyl activity inhibition assay (CBZ-D-Ala-Leu-Glu-AMC cleavage); format: biochemical; settings: Example 6: 2 μg 20S proteasome from bovine brain, substrate CBZ D-Ala-Leu-Glu-AMC, 15 minutes at 37° C.; for IC50: read-out: peptidylglutamyl activity inhibition, active at
T2 construct: was purified to homogeneity from bovine brain according to published methods; from tissue; host or cells: bovine brain

[3] = Example 4: 2 μg 20S proteasome from bovine brain, substrate CBZ-D-Ala-Leu-Arg-AMC
[4] = Example 5: 20 μg 20S proteasome from bovine brain, substrate CBZ D-Ala-Leu-Arg-AMC

SMILES | IC50 [1, 3] | IC50 [1, 4] | IC50 [2] | tryptic activity inhibition, active as inhibitors at [1, 3] | tryptic activity inhibition, active as inhibitors at [1, 4] | peptidylglutamyl activity inhibition, active at [2]
CC(C)CC(NC(=O)CNC(=O)C(=O)Cc1c[nH]c2ccccc12)C(=O)NC(CCC(=O)O)C(=O)O (stereo not drawn) [Compound 149] | > 19.9 µM | > 19.9 µM | > 19.9 µM | – | – | –
CC(C)CC(NC(=O)CCNC(=O)C(=O)Cc1c[nH]c2ccccc12)C(=O)NC(CCC(=O)O)C(=O)O (stereo not drawn) [Compound 150] | – | – | – | > 10 µg/mL | > 10 µg·mL | > 10 µg/mL
CCCCC(NC(=O)C(=O)Cc1c[nH]c2ccccc12)C(=O)NC(CC(C)C)C(=O)NC(CCC(=O)O)C(=O)O (stereo not drawn) [Compound 151] | – | – | – | > 10 µg/mL | > 10 µg·mL | > 10 µg/mL
CC(C)CC(NC(=O)C(Cc1ccccc1)NC(=O)C(=O)Cc1c[nH]c2ccccc12)C(=O)NC(CCC(=O)O)C(=O)O (stereo not drawn) [Compound 152] | – | – | – | > 10 µg/mL | > 10 µg·mL | > 10 µg/mL
CC(C)CC(NC(=O)C(NC(=O)C(=O)Cc1c[nH]c2ccccc12)C(C)O)C(=O)NC(CCC(=O)O)C(=O)O (stereo not drawn) [Compound 153] | – | – | – | > 10 µg/mL | > 10 µg·mL | > 10 µg/mL
CC(C)CC(NC(=O)C(C)NC(=O)C(=O)Cc1c[nH]c2ccccc12)C(=O)NC(CCC(=O)O)C(=O)O (stereo not drawn) [Compound 154] | – | – | – | > 10 µg/mL | > 10 µg·mL | > 10 µg/mL
CC(C)CC(NC(=O)C(CC(=O)O)NC(=O)C(=O)Cc1c[nH]c2ccccc12)C(=O)NC(CCC(=O)O)C(=O)O (stereo not drawn) [Compound 155] | – | – | – | > 10 µg/mL | > 10 µg·mL | > 10 µg/mL
CC(C)CC(NC(=O)C(NC(=O)C(=O)Cc1c[nH]c2ccccc12)C(C)C)C(=O)NC(CCC(=O)O)C(=O)O (stereo not drawn) [Compound 156] | – | – | – | > 10 µg/mL | > 10 µg·mL | > 10 µg/mL
CCCC(NC(=O)C(=O)Cc1c[nH]c2ccccc12)C(=O)NC(CC(C)C)C(=O)NC(CCC(=O)O)C(=O)O (stereo not drawn) [Compound 157] | – | – | – | > 10 µg/mL | > 10 µg·mL | > 10 µg/mL
CC(C)CC(NC(=O)C(Cc1ccc(O)cc1)NC(=O)C(=O)Cc1c[nH]c2ccccc12)C(=O)NC(CCC(=O)O)C(=O)O (stereo not drawn) [Compound 158] | > 16.4 µM | > 16.4 µM | > 16.4 µM | – | – | –
CCC(C)C(NC(=O)C(=O)Cc1c[nH]c2ccccc12)C(=O)NC(CC(C)C)C(=O)NC(CCC(=O)O)C(=O)O (stereo not drawn) [Compound 159] | – | – | – | > 10 µg/mL | > 10 µg·mL | > 10 µg/mL
CC(C)CC(NC(=O)C(CC1CCCCC1)NC(=O)C(=O)Cc1c[nH]c2ccccc12)C(=O)NC(CCC(=O)O)C(=O)O (stereo not drawn) [Compound 160] | – | – | – | > 10 µg/mL | > 10 µg·mL | > 10 µg/mL
CC(C)CC(NC(=O)C(Cc1cccnc1)NC(=O)C(=O)Cc1c[nH]c2ccccc12)C(=O)NC(CCC(=O)O)C(=O)O (stereo not drawn) [Compound 161] | – | – | – | > 10 µg/mL | > 10 µg·mL | > 10 µg/mL
CC(C)CC(NC(=O)C(Cc1ccc2ccccc2c1)NC(=O)C(=O)Cc1c[nH]c2ccccc12)C(=O)NC(CCC(=O)O)C(=O)O (stereo not drawn) [Compound 162] | – | – | – | > 10 µg/mL | > 10 µg·mL | > 10 µg/mL
CC(C)CC(NC(=O)C(Cc1ccc(-c2ccccc2)cc1)NC(=O)C(=O)Cc1c[nH]c2ccccc12)C(=O)NC(CCC(=O)O)C(=O)O (stereo not drawn) [Compound 163] | – | – | – | > 10 µg/mL | > 10 µg·mL | > 10 µg/mL
CC(C)CC(NC(=O)C(Cc1ccc2ccccc2c1)NC(=O)C(=O)Cc1c[nH]c2ccccc12)C(=O)NC(C(=O)O)C(C)C (stereo not drawn) [Compound 164] | – | – | – | > 10 µg/mL | > 10 µg·mL | > 10 µg/mL

SMILES | IC50 [1, 3] | IC50 [1, 4] | IC50 [2] | tryptic activity inhibition, active as inhibitors at [1, 3] | tryptic activity inhibition, active as inhibitors at [1, 4] | peptidylglutamyl activity inhibition, active at [2]
CC(C)CC(NC(=O)C(Cc1ccc(-c2ccccc2)cc1)NC(=O)C(=O)Cc1c[nH]c2ccccc12)C(=O)NC(C(=O)O)C(C)C (stereo not drawn) [Compound 165] | – | – | – | > 10 µg/mL | > 10 µg·mL | > 10 µg/mL
CCC(C)C(NC(=O)C(=O)Cc1c[nH]c2ccccc12)C(=O)NC(CC(C)C)C(=O)NC(C(=O)O)C(C)C (stereo not drawn) [Compound 167] | – | – | – | > 10 µg/mL | > 10 µg·mL | > 10 µg/mL
CC(C)CC(NC(=O)C(CC1CCCCC1)NC(=O)C(=O)Cc1c[nH]c2ccccc12)C(=O)NC(C(=O)O)C(C)C (stereo not drawn) [Compound 168] | – | – | – | > 10 µg/mL | > 10 µg·mL | > 10 µg/mL
CC(C)CC(NC(=O)C(Cc1cccnc1)NC(=O)C(=O)Cc1c[nH]c2ccccc12)C(=O)NCC(=O)O (stereo not drawn) [Compound 169] | – | – | – | > 10 µg/mL | > 10 µg·mL | > 10 µg/mL
CC(C)CC(NC(=O)C(Cc1ccc2ccccc2c1)NC(=O)C(=O)Cc1c[nH]c2ccccc12)C(=O)NCC(=O)O (stereo not drawn) [Compound 170] | – | – | – | > 10 µg/mL | > 10 µg·mL | > 10 µg/mL
CC(C)CC(NC(=O)C(Cc1ccc(-c2ccccc2)cc1)NC(=O)C(=O)Cc1c[nH]c2ccccc12)C(=O)NCC(=O)O (stereo not drawn) [Compound 171] | – | – | – | > 10 µg/mL | > 10 µg·mL | > 10 µg/mL
CC(C)CC(NC(=O)C(Cc1cccnc1)NC(=O)C(=O)Cc1c[nH]c2ccccc12)C(=O)NC(C(=O)O)C(C)C (stereo not drawn) [Compound 173] | – | – | – | > 10 µg/mL | > 10 µg·mL | > 10 µg/mL
CCCCC(NC(=O)C(CC(C)C)NC(=O)C(Cc1ccc(-c2ccccc2)cc1)NC(=O)C(=O)Cc1c[nH]c2ccccc12)C(=O)O (stereo not drawn) [Compound 174] | – | – | – | > 10 µg/mL | > 10 µg·mL | > 10 µg/mL
CC(C)CC(NC(=O)C(Cc1ccc(-c2ccccc2)cc1)NC(=O)C(=O)Cc1c[nH]c2ccccc12)C(=O)NC(Cc1ccccc1)C(=O)O (stereo not drawn) [Compound 175] | – | – | – | > 10 µg/mL | > 10 µg·mL | > 10 µg/mL
CC(C)CC(NC(=O)C(Cc1ccc(-c2ccccc2)cc1)NC(=O)C(=O)Cc1c[nH]c2ccccc12)C(=O)NC(CC(=O)O)C(=O)O (stereo not drawn) [Compound 176] | – | – | – | > 10 µg/mL | > 10 µg·mL | > 10 µg/mL
CC(C)CC(NC(=O)C(Cc1ccc(-c2ccccc2)cc1)NC(=O)C(=O)Cc1c[nH]c2ccccc12)C(=O)NC(CCC(=O)O)C(=O)O (stereo not drawn) [Compound 177] | – | – | – | > 10 µg/mL | > 10 µg·mL | > 10 µg/mL
CCCCC(NC(=O)C(CC(C)C)NC(=O)C(Cc1ccc2ccccc2c1)NC(=O)C(=O)Cc1c[nH]c2ccccc12)C(=O)O (stereo not drawn) [Compound 178] | – | – | – | > 10 µg/mL | > 10 µg·mL | > 10 µg/mL
CC(C)CC(NC(=O)C(Cc1ccc2ccccc2c1)NC(=O)C(=O)Cc1c[nH]c2ccccc12)C(=O)NC(Cc1ccccc1)C(=O)O (stereo not drawn) [Compound 179] | – | – | – | > 10 µg/mL | > 10 µg·mL | > 10 µg/mL
CC(C)CC(NC(=O)C(Cc1ccc2ccccc2c1)NC(=O)C(=O)Cc1c[nH]c2ccccc12)C(=O)NC(CC(=O)O)C(=O)O (stereo not drawn) [Compound 180] | – | – | – | > 10 µg/mL | > 10 µg·mL | > 10 µg/mL
CC(C)CC(NC(=O)C(Cc1ccc2ccccc2c1)NC(=O)C(=O)Cc1c[nH]c2ccccc12)C(=O)NC(CCC(=O)O)C(=O)O (stereo not drawn) [Compound 181] | > 15.6 µM | > 15.6 µM | > 15.6 µM | – | – | –
CC(C)CC(NC(=O)C(=O)Cc1c[nH]c2ccccc12)C(=O)NC(Cc1ccccc1)C(=O)O (stereo not drawn) [Compound 182] | – | – | – | > 10 µg/mL | > 10 µg·mL | > 10 µg/mL
